Reference: article PMC5283832
Results are given in words; binding and its absence hold for the method and conditions named. Binding seen in cells or lysates may run through a third protein.

Sequences of proteins named here, by UniProt entry; tags and fusion partners are left off. Residues count along the entry.
UniProt P63165, residues 1-95: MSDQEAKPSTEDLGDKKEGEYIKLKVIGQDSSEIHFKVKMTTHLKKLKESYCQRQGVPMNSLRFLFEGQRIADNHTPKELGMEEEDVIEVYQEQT
UniProt P63279: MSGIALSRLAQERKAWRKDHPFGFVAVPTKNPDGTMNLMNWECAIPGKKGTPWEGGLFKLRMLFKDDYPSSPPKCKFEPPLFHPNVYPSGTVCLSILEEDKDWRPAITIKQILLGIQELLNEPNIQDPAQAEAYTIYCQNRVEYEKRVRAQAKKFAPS

B1: GAD67 (protein, UniProt P18088 1-593)
chain: MASSTPSPATSSNAGADPNTTNLRPTTYDTWCGVAHGCTRKLGLKICGFLQRTNSLEEKSRLVSAFRERQASKNLLSCENSDPGARFRRTETDFSNLFAQDLLPAKNGEEQTVQFLLEVVDILLNYVRKTFDRSTKVLDFHHPHQLLEGMEGFNLELSDHPESLEQILVDCRDTLKYGVRTGHPRFFNQLSTGLDIIGLAGEWLTSTANTNMFTYEIAPVFVLMEQITLKKMREIIGWSNKDGDGIFSPGGAISNMYSIMAARYKYFPEVKTKGMAAVPKLVLFTSEHSHYSIKKAGAALGFGTDNVILIKCNERGKIIPADLEAKILDAKQKGFVPLYVNATAGTTVYGAFDPIQEIADICEKYNLWLHVDAAWGGGLLMSRKHRHKLSGIERANSVTWNPHKMMGVLLQCSAILVKEKGILQGCNQMCAGYLFQPDKQYDVSYDTGDKAIQCGRHVDIFKFWLMWKAKGTVGFENQINKCLELAEYLYAKIKNREEFEMVFNGEPEHTNVCFWYIPQSLRGVPDSPERREKLHRVAPKIKALMMESGTTMVGYQPQGDKANFFRMVISNPAATQSDIDFLIEEIERLGQDL

Key:
CFP-NaV1.2 (rat) = CFP-NaV1.2 (rat) (UniProt P04775); experiment: FRET or BRET; donor (CFP) photobleaching time constant τ in the presence of YFP acceptor; live CHO cells co-expressing the β1 subunit; epi-fluorescence microscope; 130 mM NaCl, 4 mM KCl, 1.2 mM MgCl2, 2 mM CaCl2, 10 mM HEPES pH 7.4; 3 regions of 5–7 cells per group
[1] = molecular target: CFP-NaV1.2-Lys38Gln (rat) (UniProt P04775); experiment: as above
[2] = molecular target: native NaV1.2 (rat (endogenous in cerebellar granule neurons)) (UniProt P04775); experiment: FRET or BRET; antibody-mediated FRET (amFRET) by acceptor photobleaching; native proteins in rat cerebellar granule neurons, permeabilised with digitonin and fixed; Alexa 488 (donor, NaV1.2) and Alexa 594 (acceptor) secondary antibodies; neurons in ambient O2 or 1% O2 for 5 min

Molecule | binding (CFP-NaV1.2 (rat)) | binding [1] | binding [2]
YFP-SUMO1_(95) (from UniProt P63165 1-95) (domain or fragment) | no binding | no binding | 
YFP-Ubc9 (from UniProt P63279 1-158) (enzyme) |  | no binding | 
B1 |  |  | no binding
